{"source": "patent US12195506B2", "about": "“Immunotherapy with A*01 restricted peptides and combination of peptides against cancers and related methods” (Immatics Biotechnologies GmbH, priority 2018, dated 2025)", "data": [{"test_system": "HLA molecules of primary tumors and normal tissue samples", "test": "Identification and relative quantitation of HLA ligands by LC-MS (peptide presentation on tumor versus normal tissue)", "set-up": "species or system human", "details": "cancer entities on which the peptide was found presented (HLA ligands, LC-MS); abbreviations as in title of Table 8", "values": [{"substance": "82 (LTEKSHIRY; listed as Homo sapiens) [compound 82]", "Peptide Presentation on cancer entities": "BRCA, GBM, MEL, NSCLCadeno, NSCLCsquam"}, {"substance": "83 (DTEFHGGLHY; listed as Homo sapiens) [compound 83]", "Peptide Presentation on cancer entities": "BRCA, GC, OSCAR, PACA"}, {"substance": "85 (SSDNYEHWLY; listed as Homo sapiens) [compound 85]", "Peptide Presentation on cancer entities": "BRCA, MEL, NSCLCadeno"}, {"substance": "87 (AFDDIATYF; listed as Homo sapiens) [compound 87]", "Peptide Presentation on cancer entities": "SCLC"}, {"substance": "88 (KEVDPAGHSYI; listed as Homo sapiens) [compound 88]", "Peptide Presentation on cancer entities": "NHL"}, {"substance": "89 (EVYDGREHSAY; listed as Homo sapiens) [compound 89]", "Peptide Presentation on cancer entities": "MEL, OSCAR"}, {"substance": "90 (YEDHFPLLF; listed as Homo sapiens) [compound 90]", "Peptide Presentation on cancer entities": "MEL, OSCAR"}, {"substance": "92 (TTDDTTAMASAS; listed as Homo sapiens) [compound 92]", "Peptide Presentation on cancer entities": "GBC, MEL, NSCLCsquam"}, {"substance": "93 (HLKILSPIY; listed as Homo sapiens) [compound 93]", "Peptide Presentation on cancer entities": "BRCA"}, {"substance": "96 (TATLLIVRY; listed as Homo sapiens) [compound 96]", "Peptide Presentation on cancer entities": "AML"}, {"substance": "98 (NFSDLVFTY; listed as Homo sapiens) [compound 98]", "Peptide Presentation on cancer entities": "BRCA"}, {"substance": "99 (AADSNPSEL; listed as Homo sapiens) [compound 99]", "Peptide Presentation on cancer entities": "PRCA"}, {"substance": "101 (SITDVDFIY; listed as Homo sapiens) [compound 101]", "Peptide Presentation on cancer entities": "UEC"}, {"substance": "102 (STIRGELFF; listed as Homo sapiens) [compound 102]", "Peptide Presentation on cancer entities": "BRCA"}, {"substance": "103 (ITDTLIHLM; listed as Homo sapiens) [compound 103]", "Peptide Presentation on cancer entities": "BRCA"}, {"substance": "104 (ITDTLIHL; listed as Homo sapiens) [compound 104]", "Peptide Presentation on cancer entities": "BRCA"}, {"substance": "107 (TTENSGNYY; listed as Homo sapiens) [compound 107]", "Peptide Presentation on cancer entities": "CLL"}, {"substance": "108 (NSNLKFLEV; listed as Homo sapiens) [compound 108]", "Peptide Presentation on cancer entities": "SCLC"}, {"substance": "109 (ISEDKSISF; listed as Homo sapiens) [compound 109]", "Peptide Presentation on cancer entities": "CRC"}, {"substance": "111 (TPIPFDKILY; listed as Homo sapiens) [compound 111]", "Peptide Presentation on cancer entities": "OSCAR"}, {"substance": "112 (KASSVSAEDGY; listed as Homo sapiens) [compound 112]", "Peptide Presentation on cancer entities": "GBM, UEC"}, {"substance": "114 (AVAAAAGASLY; listed as Homo sapiens) [compound 114]", "Peptide Presentation on cancer entities": "AML, MEL, OSCAR"}, {"substance": "115 (NEIDIHSIYFY; listed as Homo sapiens) [compound 115]", "Peptide Presentation on cancer entities": "OSCAR"}, {"substance": "116 (RSDIGEFEW; listed as Homo sapiens) [compound 116]", "Peptide Presentation on cancer entities": "AML"}, {"substance": "117 (SPAKQFNIY; listed as Homo sapiens) [compound 117]", "Peptide Presentation on cancer entities": "GBC"}, {"substance": "119 (TVFDENLSRY; listed as Homo sapiens) [compound 119]", "Peptide Presentation on cancer entities": "OSCAR"}, {"substance": "121 (SADEAHGLL; listed as Homo sapiens) [compound 121]", "Peptide Presentation on cancer entities": "MEL"}, {"substance": "122 (ISEAPLTEV; listed as Homo sapiens) [compound 122]", "Peptide Presentation on cancer entities": "MEL"}, {"substance": "123 (LLKAKDILY; listed as Homo sapiens) [compound 123]", "Peptide Presentation on cancer entities": "HNSCC"}, {"substance": "124 (FLKVTGYDKDDY; listed as Homo sapiens) [compound 124]", "Peptide Presentation on cancer entities": "HCC"}, {"substance": "126 (TTDPKKFQY; listed as Homo sapiens) [compound 126]", "Peptide Presentation on cancer entities": "MEL, NSCLCsquam, OC"}, {"substance": "127 (VPFNLITEY; listed as Homo sapiens) [compound 127]", "Peptide Presentation on cancer entities": "MEL"}, {"substance": "128 (YTEFVDATFTK; listed as Homo sapiens) [compound 128]", "Peptide Presentation on cancer entities": "HNSCC"}, {"substance": "130 (YIGLKGLYF; listed as Homo sapiens) [compound 130]", "Peptide Presentation on cancer entities": "MEL"}, {"substance": "131 (LEDGIEQSAY; listed as Homo sapiens) [compound 131]", "Peptide Presentation on cancer entities": "NHL"}, {"substance": "132 (RTHIGYKVY; listed as Homo sapiens) [compound 132]", "Peptide Presentation on cancer entities": "NSCLCsquam"}, {"substance": "134 (SAPSSSGSPLY; listed as Homo sapiens) [compound 134]", "Peptide Presentation on cancer entities": "NSCLCsquam"}, {"substance": "136 (RRLNFSGFGY; listed as Homo sapiens) [compound 136]", "Peptide Presentation on cancer entities": "SCLC"}, {"substance": "144 (RTIEGDFLW; listed as Homo sapiens) [compound 144]", "Peptide Presentation on cancer entities": "GBM"}, {"substance": "145 (LSDAVHVEF; listed as Homo sapiens) [compound 145]", "Peptide Presentation on cancer entities": "CLL"}, {"substance": "147 (AQVQDTGRY; listed as Homo sapiens) [compound 147]", "Peptide Presentation on cancer entities": "MEL"}, {"substance": "148 (GTKQWVHARY; listed as Homo sapiens) [compound 148]", "Peptide Presentation on cancer entities": "CLL"}, {"substance": "149 (PIMSSSQALY; listed as Homo sapiens) [compound 149]", "Peptide Presentation on cancer entities": "NSCLCsquam"}, {"substance": "150 (FTTLSDLQTNMA; listed as Homo sapiens) [compound 150]", "Peptide Presentation on cancer entities": "HNSCC, MEL, NHL"}, {"substance": "151 (YEVDTKLLSL; listed as Homo sapiens) [compound 151]", "Peptide Presentation on cancer entities": "MEL"}, {"substance": "155 (HTMEVTVY; listed as Homo sapiens) [compound 155]", "Peptide Presentation on cancer entities": "MEL"}, {"substance": "156 (STALSILLL; listed as Homo sapiens) [compound 156]", "Peptide Presentation on cancer entities": "MEL"}, {"substance": "158 (EVTDRNMLAF; listed as Homo sapiens) [compound 158]", "Peptide Presentation on cancer entities": "HNSCC, OC, OSCAR"}, {"substance": "159 (RQAPGPARDY; listed as Homo sapiens) [compound 159]", "Peptide Presentation on cancer entities": "NSCLCsquam"}, {"substance": "160 (EVLGEEMYAY; listed as Homo sapiens) [compound 160]", "Peptide Presentation on cancer entities": "PRCA"}, {"substance": "161 (EAAPDIMHY; listed as Homo sapiens) [compound 161]", "Peptide Presentation on cancer entities": "MEL, OSCAR"}, {"substance": "162 (IADNPQLSFY; listed as Homo sapiens) [compound 162]", "Peptide Presentation on cancer entities": "BRCA"}, {"substance": "163 (KIRAEVLSHY; listed as Homo sapiens) [compound 163]", "Peptide Presentation on cancer entities": "CLL"}, {"substance": "165 (VSVYNSYPY; listed as Homo sapiens) [compound 165]", "Peptide Presentation on cancer entities": "BRCA"}, {"substance": "169 (TVDNANILL; listed as Homo sapiens) [compound 169]", "Peptide Presentation on cancer entities": "UBC"}, {"substance": "172 (FSEPFHLIV; listed as Homo sapiens) [compound 172]", "Peptide Presentation on cancer entities": "MEL"}, {"substance": "173 (QSTTGVSHY; listed as Homo sapiens) [compound 173]", "Peptide Presentation on cancer entities": "CCC"}, {"substance": "174 (TSEVEGLAFVSY; listed as Homo sapiens) [compound 174]", "Peptide Presentation on cancer entities": "NSCLCsquam"}, {"substance": "175 (GLEYEAPKLY; listed as Homo sapiens) [compound 175]", "Peptide Presentation on cancer entities": "GBM"}, {"substance": "176 (HTDLESPSAVY; listed as Homo sapiens) [compound 176]", "Peptide Presentation on cancer entities": "HCC, UBC"}, {"substance": "180 (AQISDTGRY; listed as Homo sapiens) [compound 180]", "Peptide Presentation on cancer entities": "MEL"}, {"substance": "183 (LADTDLGMTF; listed as Homo sapiens) [compound 183]", "Peptide Presentation on cancer entities": "OSCAR"}, {"substance": "185 (NSDESADSEPHKY; listed as Homo sapiens) [compound 185]", "Peptide Presentation on cancer entities": "BRCA"}, {"substance": "189 (FRGVFVHRY; listed as Homo sapiens) [compound 189]", "Peptide Presentation on cancer entities": "MEL"}, {"substance": "190 (VSSTVHNLY; listed as Homo sapiens) [compound 190]", "Peptide Presentation on cancer entities": "BRCA"}, {"substance": "191 (FTRAFDQLRM; listed as Homo sapiens) [compound 191]", "Peptide Presentation on cancer entities": "NSCLCadeno"}, {"substance": "196 (RLAQYTIERY; listed as Homo sapiens) [compound 196]", "Peptide Presentation on cancer entities": "HCC"}, {"substance": "203 (LSQDELSKF; listed as Homo sapiens) [compound 203]", "Peptide Presentation on cancer entities": "NSCLCsquam"}, {"substance": "207 (LLEGEDAHLTQY; listed as Homo sapiens) [compound 207]", "Peptide Presentation on cancer entities": "HNSCC"}, {"substance": "209 (EADPFLKYL; listed as Homo sapiens) [compound 209]", "Peptide Presentation on cancer entities": "AML"}, {"substance": "210 (LLEADPFLKY; listed as Homo sapiens) [compound 210]", "Peptide Presentation on cancer entities": "AML"}, {"substance": "211 (YLNEWGSRF; listed as Homo sapiens) [compound 211]", "Peptide Presentation on cancer entities": "NSCLCadeno"}, {"substance": "212 (MMTDLTSVY; listed as Homo sapiens) [compound 212]", "Peptide Presentation on cancer entities": "MEL"}, {"substance": "213 (VSDSTTEITY; listed as Homo sapiens) [compound 213]", "Peptide Presentation on cancer entities": "PACA"}, {"substance": "214 (VQDPSLPVY; listed as Homo sapiens) [compound 214]", "Peptide Presentation on cancer entities": "NSCLCsquam"}, {"substance": "215 (DTLEAATSLY; listed as Homo sapiens) [compound 215]", "Peptide Presentation on cancer entities": "HCC"}, {"substance": "217 (LMDEGAVLTL; listed as Homo sapiens) [compound 217]", "Peptide Presentation on cancer entities": "HNSCC"}, {"substance": "219 (KTELETALYY; listed as Homo sapiens) [compound 219]", "Peptide Presentation on cancer entities": "HCC"}, {"substance": "220 (DVERIKDTY; listed as Homo sapiens) [compound 220]", "Peptide Presentation on cancer entities": "NSCLCsquam"}, {"substance": "221 (TDVERIKDTY; listed as Homo sapiens) [compound 221]", "Peptide Presentation on cancer entities": "HCC, NSCLCsquam"}, {"substance": "222 (GSPDAVVSY; listed as Homo sapiens) [compound 222]", "Peptide Presentation on cancer entities": "NSCLCsquam"}]}]}
